Article PMC12149316
Results are given in words; binding and its absence hold for the method and conditions named. Binding seen in cells or lysates may run through a third protein. Some binding calls cover weakened binding; strength is not graded here.

Chains of the proteins cited; added tags and fusions are not shown.
UniProt Q9Z330: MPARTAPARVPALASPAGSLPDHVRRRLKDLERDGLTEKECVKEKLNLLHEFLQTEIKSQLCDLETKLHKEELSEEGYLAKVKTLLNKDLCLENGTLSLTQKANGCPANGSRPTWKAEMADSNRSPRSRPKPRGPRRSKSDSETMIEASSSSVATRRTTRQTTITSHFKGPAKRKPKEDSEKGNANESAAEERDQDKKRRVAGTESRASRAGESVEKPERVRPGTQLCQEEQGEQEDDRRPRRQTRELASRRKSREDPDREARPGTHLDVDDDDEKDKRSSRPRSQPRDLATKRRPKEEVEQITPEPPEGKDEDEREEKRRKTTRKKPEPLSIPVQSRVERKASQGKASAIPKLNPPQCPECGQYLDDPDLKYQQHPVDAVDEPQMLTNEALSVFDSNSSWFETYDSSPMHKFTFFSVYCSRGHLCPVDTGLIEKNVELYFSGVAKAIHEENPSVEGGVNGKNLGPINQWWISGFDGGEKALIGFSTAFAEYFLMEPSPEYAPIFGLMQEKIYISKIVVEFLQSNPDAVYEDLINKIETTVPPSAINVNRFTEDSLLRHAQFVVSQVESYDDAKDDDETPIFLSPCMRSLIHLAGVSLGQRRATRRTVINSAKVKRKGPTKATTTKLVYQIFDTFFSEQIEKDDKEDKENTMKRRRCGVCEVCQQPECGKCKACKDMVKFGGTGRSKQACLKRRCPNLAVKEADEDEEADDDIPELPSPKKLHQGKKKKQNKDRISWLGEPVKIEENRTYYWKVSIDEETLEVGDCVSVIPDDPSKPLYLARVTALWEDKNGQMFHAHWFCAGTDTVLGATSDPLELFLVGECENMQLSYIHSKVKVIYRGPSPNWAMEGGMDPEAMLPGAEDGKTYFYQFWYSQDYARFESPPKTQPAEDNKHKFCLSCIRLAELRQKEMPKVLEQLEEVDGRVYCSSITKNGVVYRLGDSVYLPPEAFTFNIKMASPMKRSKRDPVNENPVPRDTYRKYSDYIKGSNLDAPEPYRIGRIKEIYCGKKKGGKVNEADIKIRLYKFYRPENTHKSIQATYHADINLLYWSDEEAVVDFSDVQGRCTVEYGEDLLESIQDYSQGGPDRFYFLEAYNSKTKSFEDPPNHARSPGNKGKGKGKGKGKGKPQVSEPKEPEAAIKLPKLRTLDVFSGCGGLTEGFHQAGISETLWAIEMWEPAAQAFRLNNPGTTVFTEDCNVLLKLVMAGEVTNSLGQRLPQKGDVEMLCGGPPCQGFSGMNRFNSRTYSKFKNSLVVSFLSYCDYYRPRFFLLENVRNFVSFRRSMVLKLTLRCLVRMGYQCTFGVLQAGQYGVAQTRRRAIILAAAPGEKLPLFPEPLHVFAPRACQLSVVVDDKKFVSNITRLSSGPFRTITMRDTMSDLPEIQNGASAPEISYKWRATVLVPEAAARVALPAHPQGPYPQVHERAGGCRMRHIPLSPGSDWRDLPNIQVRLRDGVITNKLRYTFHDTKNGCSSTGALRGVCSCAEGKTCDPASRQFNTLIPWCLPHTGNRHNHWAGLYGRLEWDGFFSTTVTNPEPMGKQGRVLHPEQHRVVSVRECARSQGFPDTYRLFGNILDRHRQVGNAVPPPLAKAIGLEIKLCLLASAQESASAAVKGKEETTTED

How the values were obtained:
[1] = molecular target: T1, ubiquitin-like containing PHD and RING finger domains 1 (UHRF1) (rat (endogenous in NRK-49F)) (UniProt Q7TPK1); assay: co-IP; NRK-49F cells harvested in IP Lysis buffer; anti-UHRF1 antibody and protein A/G magnetic beads; UHRF1-combined proteins analysed by Western blot; IgG as negative control
T1 sequence: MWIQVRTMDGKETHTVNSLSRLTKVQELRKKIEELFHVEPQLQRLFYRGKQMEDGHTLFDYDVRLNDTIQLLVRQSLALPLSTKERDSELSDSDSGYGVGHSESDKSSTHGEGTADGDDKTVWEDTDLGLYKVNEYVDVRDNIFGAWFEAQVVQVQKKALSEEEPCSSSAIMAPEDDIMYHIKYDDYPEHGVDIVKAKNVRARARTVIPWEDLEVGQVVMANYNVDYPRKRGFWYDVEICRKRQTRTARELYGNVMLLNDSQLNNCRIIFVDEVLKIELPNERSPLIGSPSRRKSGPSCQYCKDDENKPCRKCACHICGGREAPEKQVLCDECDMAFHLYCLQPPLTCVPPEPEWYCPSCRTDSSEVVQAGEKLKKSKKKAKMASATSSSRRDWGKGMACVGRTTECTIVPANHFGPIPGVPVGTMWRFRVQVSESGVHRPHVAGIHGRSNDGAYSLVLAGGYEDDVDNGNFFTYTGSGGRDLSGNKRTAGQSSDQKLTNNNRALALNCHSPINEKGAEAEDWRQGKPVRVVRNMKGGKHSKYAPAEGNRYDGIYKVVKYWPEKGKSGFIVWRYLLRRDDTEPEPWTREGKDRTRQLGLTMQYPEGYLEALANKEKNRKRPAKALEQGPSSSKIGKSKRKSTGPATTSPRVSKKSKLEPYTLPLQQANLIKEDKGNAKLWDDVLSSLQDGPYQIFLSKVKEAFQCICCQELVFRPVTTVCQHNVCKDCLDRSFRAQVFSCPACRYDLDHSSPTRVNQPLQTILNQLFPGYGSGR

[2] = molecular target: T1, ubiquitin-like containing PHD and RING finger domains 1 (UHRF1) (rat (endogenous in NRK-49F)); assay: proximity ligation; in situ PLA kit (Sigma) in NRK-49F cells, with or without TGF-β1; also with NSC232003 (50 μM pre-incubation), which weakened the signal; red fluorescent signals by microscopy

binding [1]: binds | binding [2]: binds
Substance: DNA methyltransferase 1 (DNMT1) (from UniProt Q9Z330 1-1622) (enzyme)
